# Measurements reported in patent publication US20120077964A1 (Merck Sharp & Dohme, published 2012).
# Sequences of proteins named here, by UniProt entry; tags and fusion partners are left off. Residues count along the entry.
# UniProt Q8NBP7, residues 31-692: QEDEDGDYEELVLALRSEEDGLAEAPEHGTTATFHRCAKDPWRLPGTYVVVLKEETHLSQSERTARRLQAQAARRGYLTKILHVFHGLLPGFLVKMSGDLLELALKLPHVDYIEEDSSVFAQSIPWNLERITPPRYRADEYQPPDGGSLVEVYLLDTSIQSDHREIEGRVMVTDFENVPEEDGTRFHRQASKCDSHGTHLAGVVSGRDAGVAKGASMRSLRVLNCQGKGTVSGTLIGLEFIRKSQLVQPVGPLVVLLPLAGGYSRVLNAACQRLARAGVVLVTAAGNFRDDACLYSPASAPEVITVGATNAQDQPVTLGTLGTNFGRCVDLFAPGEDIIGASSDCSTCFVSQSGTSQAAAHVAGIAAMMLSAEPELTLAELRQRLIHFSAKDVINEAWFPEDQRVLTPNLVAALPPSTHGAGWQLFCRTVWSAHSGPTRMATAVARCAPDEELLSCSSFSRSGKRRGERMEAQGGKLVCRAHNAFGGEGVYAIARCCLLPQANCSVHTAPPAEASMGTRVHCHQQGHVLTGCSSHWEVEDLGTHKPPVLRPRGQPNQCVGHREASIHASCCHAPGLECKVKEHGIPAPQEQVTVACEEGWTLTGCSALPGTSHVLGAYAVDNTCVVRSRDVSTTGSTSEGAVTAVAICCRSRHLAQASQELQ
# Results are given in words; binding and its absence hold for the method and conditions named. Some entries that bind do so weakly or less than the wild type.
# B1: 1CX1G08 Fab (Fab, V domains shown)
# VH: QVQLVESGGGLVQPGGSLRLSCAASGFTFSDYWVSWVRQAPGKGLEWVSFISYDGSSTYYADSVKGRFTISRDNSKNTLYLQMNSLRAEDTAVYYCARTYFEGVDVWGQGTLVTVSS
# VL: DIELTQPPSVSVAPGQTARISCSGDNIGTYYVHWYQQKPGQAPVLVIYDDSNRPSGIPERFSGSNSGNTATLTISGTQAEDEADYYCGTWDNTSFNLVFGGGTKLTVLG
# B2: 3BX5C01 Fab (Fab, V domains shown)
# VH: QVQLVQSGAEVKKPGESLKISCKGSGYSFTSYGISWVRQMPGKGLEWMGMIDPSDSFTTYSPSFQGQVTISADKSISTAYLQWSSLKASDTAMYYCARGYYFTYALQPMDHWGQGTLVTVSS
# VL: DIELTQPPSVSVAPGQTARISCSGDNLRDYIVHWYQQKPGQAPVLVIYDDSNRPSGIPERFSGSNSGNTATLTISGTQAEDEADYYCGFDNGGDIDVFGGGTKLTVLG
# B3: 3CX2A06 Fab (Fab, V domains shown)
# VH: QVQLVQSGAEVKKPGESLKISCKGSGYSFSNFWIAWVRQMPGKGLEWMGIIDPSDSWTRYSPSFQGQVTISADKSISTAYLQWSSLKASDTAMYYCARGDGQDFDNWGQGTLVTVSS
# VL: DIQMTQSPSSLSASVGDRVTITCRASQNINSYLNWYQQKPGKAPKLLIYAASSLQSGVPSRFSGSGSGTDFTLTISSLQPEDFAVYYCLQNYDLPNTFGQGTKVEIKR
# B4: 3CX3D02 Fab (Fab, V domains shown)
# VH: QVQLVQSGAEVKKPGESLKISCKGSGYSFTNSWIGWVRQMPGKGLEWMGIIYPSDSYTIYSPSFQGQVTISADKSISTAYLQWSSLKASDTAMYYCARGGGYYYALMDVWAQGTLVTVSS
# VL: DIQMTQSPSSLSASVGDRVTITCRASQTISTWLNWYQQKPGKAPKLLIYAASSLQSGVPSRFSGSGSGTDFTLTISSLQPEDFATYYCLQDSSLPLTFGQGTKVEIKR
# B5: 3CX4B08 Fab (Fab, V domains shown)
# VH: QVQLVESGGGLVQPGGSLRLSCAASGFTFSNYTMNWVRQAPGKGLEWVSFISSSSSETYYADSVKGRFTISRDNSKNTLYLQMNSLRAEDTAVYYCARGYGDMVDLWGQGTLVTVSS
# VL: DIELTQPPSVSVAPGQTARISCSGDSIPTYYVAWYQQKPGQAPVLVIYSDTDRPSGIPERFSGSNSGNTATLTISGTQAEDEADYYCQSFDNHGYHVFGGGTKLTVLG
# Biological target: recombinant human PCSK9, V5-, His-tagged (human, UniProt Q8NBP7 31-692, limits assumed)
# Experiment: ELISA, immobilized V5-, His-tagged PCSK9, HRP anti-Fab detection
row,Binder,binding
1,B1,binds
2,B2,binds
3,B3,binds
4,B4,binds
5,B5,binds
